Reference: paper PMC11574364

Sequences of proteins named here, by UniProt entry; tags and fusion partners are left off. A change or cut given only in a name is not applied to a line headed by its entry.
UniProt Q04609: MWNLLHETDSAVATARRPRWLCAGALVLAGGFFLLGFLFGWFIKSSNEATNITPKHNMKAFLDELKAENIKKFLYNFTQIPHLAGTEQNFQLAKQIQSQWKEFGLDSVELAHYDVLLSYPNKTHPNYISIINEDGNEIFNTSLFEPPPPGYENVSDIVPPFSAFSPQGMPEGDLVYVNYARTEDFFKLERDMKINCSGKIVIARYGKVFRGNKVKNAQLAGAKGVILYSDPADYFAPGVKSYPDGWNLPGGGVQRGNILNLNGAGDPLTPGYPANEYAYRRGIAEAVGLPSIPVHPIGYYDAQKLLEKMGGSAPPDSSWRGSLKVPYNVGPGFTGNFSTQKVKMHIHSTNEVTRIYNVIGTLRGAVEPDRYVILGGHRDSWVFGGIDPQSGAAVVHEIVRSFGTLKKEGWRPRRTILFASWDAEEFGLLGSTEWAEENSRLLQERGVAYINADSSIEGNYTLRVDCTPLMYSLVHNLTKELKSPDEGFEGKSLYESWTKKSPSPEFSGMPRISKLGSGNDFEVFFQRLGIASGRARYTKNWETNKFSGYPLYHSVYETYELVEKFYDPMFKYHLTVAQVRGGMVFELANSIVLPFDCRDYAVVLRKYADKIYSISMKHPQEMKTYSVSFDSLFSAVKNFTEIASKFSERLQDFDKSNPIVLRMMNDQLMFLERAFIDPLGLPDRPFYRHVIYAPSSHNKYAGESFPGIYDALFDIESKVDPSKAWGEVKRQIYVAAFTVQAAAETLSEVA
UniProt P62256: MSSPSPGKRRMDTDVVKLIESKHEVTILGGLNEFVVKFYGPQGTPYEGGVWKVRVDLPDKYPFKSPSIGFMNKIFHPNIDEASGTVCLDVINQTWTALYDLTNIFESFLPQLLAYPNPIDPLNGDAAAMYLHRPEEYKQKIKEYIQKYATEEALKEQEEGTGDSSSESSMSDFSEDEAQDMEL
UniProt P05997: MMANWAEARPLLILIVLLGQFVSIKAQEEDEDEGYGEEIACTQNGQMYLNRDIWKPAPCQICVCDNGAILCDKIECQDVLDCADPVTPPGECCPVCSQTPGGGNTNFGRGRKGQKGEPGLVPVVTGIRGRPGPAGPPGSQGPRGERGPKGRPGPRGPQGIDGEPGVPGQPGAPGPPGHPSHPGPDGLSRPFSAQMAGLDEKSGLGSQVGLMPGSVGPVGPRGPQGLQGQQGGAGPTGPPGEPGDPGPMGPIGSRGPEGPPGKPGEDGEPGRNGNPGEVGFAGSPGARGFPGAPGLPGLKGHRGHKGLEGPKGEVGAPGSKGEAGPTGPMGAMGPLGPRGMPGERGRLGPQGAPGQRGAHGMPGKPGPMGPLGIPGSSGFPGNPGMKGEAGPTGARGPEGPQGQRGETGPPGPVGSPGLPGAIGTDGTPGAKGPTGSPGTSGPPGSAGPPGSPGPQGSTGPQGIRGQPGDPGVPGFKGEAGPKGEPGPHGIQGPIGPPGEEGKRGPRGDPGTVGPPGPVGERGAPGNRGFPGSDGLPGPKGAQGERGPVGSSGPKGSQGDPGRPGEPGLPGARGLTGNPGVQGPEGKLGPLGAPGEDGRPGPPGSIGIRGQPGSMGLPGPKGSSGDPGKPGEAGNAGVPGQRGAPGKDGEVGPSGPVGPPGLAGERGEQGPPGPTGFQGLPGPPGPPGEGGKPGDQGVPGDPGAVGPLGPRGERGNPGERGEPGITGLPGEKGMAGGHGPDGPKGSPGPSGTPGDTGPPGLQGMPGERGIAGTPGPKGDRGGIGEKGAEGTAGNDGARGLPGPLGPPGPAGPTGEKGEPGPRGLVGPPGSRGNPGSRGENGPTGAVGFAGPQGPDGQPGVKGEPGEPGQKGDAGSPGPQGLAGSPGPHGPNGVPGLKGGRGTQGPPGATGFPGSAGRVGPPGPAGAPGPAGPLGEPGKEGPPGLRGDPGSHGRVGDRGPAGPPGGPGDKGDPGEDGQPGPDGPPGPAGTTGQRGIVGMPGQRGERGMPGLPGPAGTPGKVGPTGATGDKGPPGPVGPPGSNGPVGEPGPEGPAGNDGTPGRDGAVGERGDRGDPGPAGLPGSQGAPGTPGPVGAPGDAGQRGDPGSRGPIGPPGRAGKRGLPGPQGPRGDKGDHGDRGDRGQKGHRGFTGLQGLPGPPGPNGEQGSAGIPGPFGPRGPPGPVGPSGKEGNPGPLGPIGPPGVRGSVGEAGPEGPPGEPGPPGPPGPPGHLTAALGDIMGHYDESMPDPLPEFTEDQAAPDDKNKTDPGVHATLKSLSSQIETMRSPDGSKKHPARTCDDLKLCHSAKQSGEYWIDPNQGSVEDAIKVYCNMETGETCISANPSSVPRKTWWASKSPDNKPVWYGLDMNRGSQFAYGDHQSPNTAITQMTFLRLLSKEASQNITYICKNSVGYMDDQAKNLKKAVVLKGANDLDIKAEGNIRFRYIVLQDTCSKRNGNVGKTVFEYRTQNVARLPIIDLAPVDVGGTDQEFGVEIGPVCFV

Experiments:
Assay in all cases: human ORF protein microarray
FOLH1 (Homo sapiens) = FOLH1 (Homo sapiens) (UniProt Q04609); conditions: 5' phosphate; Domain array: 20 mM Tris-HCl pH 7.4, 200 mM KCl, 0.2 mM EDTA, 0.05% NP40, 2 ug/ul heparin, overnight 4 C. ORF array: PBS pH 7.0 with RNase inhibitor, 100 ng RNA, 1 h.; recombinant protein; protein details: N-terminal GST-6xHis; label: internal DY647 at G18; letters put together from the description
DTNA (Homo sapiens) = molecular target: T1, DTNA (Homo sapiens) (UniProt Q9Y4J8); conditions: 5' phosphate; Domain array: 20 mM Tris-HCl pH 7.4, 200 mM KCl, 0.2 mM EDTA, 0.05% NP40, 2 ug/ul heparin, overnight 4 C. ORF array: PBS pH 7.0 with RNase inhibitor, 100 ng RNA, 1 h.; recombinant protein; protein details: N-terminal GST-6xHis; label: internal DY647 at G18; letters put together from the description
T1 sequence (looked up, limits assumed): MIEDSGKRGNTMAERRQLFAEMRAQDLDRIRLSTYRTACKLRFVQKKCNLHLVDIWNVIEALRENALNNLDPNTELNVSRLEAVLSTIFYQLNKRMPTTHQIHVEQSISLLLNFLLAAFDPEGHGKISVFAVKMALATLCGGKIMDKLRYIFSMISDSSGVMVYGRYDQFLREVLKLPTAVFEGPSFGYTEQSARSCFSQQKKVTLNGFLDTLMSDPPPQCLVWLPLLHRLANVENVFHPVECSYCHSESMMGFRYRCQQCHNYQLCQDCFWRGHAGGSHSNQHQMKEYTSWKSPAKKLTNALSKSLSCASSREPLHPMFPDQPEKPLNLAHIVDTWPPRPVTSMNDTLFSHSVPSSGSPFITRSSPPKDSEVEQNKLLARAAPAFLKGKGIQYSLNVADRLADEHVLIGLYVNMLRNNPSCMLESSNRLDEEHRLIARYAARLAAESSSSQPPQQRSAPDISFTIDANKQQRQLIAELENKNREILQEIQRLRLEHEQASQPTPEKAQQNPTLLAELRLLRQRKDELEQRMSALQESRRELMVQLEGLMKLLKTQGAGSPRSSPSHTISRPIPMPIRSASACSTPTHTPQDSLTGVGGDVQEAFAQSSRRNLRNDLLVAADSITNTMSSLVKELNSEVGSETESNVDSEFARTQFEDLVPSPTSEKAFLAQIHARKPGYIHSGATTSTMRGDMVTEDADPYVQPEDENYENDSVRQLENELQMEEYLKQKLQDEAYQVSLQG

DAK (Homo sapiens) = molecular target: T2, DAK (Homo sapiens) (UniProt Q3LXA3); conditions: 5' phosphate; Domain array: 20 mM Tris-HCl pH 7.4, 200 mM KCl, 0.2 mM EDTA, 0.05% NP40, 2 ug/ul heparin, overnight 4 C. ORF array: PBS pH 7.0 with RNase inhibitor, 100 ng RNA, 1 h.; recombinant protein; protein details: N-terminal GST-6xHis; label: internal DY647 at G18; letters put together from the description
T2 sequence (looked up, limits assumed): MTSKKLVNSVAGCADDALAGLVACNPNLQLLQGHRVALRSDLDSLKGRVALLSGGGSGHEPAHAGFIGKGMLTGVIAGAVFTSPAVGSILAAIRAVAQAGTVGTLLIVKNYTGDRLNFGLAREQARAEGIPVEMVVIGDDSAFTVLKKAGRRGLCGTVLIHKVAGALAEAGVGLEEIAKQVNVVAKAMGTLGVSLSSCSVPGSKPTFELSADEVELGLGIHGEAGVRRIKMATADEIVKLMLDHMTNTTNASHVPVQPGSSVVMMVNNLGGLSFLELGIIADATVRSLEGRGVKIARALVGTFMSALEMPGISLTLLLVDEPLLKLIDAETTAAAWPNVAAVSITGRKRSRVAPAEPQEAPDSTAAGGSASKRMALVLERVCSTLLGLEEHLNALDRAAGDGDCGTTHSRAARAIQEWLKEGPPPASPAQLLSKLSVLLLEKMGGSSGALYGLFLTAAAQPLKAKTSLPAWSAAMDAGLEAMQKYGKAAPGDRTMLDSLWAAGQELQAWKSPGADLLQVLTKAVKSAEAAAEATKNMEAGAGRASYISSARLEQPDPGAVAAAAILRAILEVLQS

SRP9 (Homo sapiens) = molecular target: T3, SRP9 (Homo sapiens) (UniProt P49458); conditions: 5' phosphate; Domain array: 20 mM Tris-HCl pH 7.4, 200 mM KCl, 0.2 mM EDTA, 0.05% NP40, 2 ug/ul heparin, overnight 4 C. ORF array: PBS pH 7.0 with RNase inhibitor, 100 ng RNA, 1 h.; recombinant protein; protein details: N-terminal GST-6xHis; label: internal DY647 at G18; letters put together from the description
T3 sequence (looked up, limits assumed): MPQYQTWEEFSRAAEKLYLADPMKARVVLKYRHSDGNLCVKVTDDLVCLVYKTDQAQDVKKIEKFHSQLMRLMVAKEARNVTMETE

THG1L (Homo sapiens) = molecular target: T4, THG1L (Homo sapiens) (UniProt Q9NWX6); conditions: 5' phosphate; amino-C6 U at position 18; Domain array: 20 mM Tris-HCl pH 7.4, 200 mM KCl, 0.2 mM EDTA, 0.05% NP40, 2 ug/ul heparin, overnight 4 C. ORF array: PBS pH 7.0 with RNase inhibitor, 100 ng RNA, 1 h.; recombinant protein; protein details: N-terminal GST-6xHis; label: internal Cy5 or DY647
T4 sequence (looked up, limits assumed): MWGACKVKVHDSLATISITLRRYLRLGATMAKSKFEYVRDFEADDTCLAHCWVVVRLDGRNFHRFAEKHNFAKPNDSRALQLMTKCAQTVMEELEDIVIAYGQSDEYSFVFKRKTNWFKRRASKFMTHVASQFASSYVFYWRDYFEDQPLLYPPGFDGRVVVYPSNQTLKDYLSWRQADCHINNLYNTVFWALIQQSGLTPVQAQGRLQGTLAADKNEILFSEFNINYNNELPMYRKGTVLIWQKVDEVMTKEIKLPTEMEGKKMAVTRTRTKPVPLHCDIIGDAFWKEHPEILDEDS

UBE2H (Homo sapiens) = UBE2H (Homo sapiens) (UniProt P62256); conditions: 5' phosphate; amino-C6 U at position 18; Domain array: 20 mM Tris-HCl pH 7.4, 200 mM KCl, 0.2 mM EDTA, 0.05% NP40, 2 ug/ul heparin, overnight 4 C. ORF array: PBS pH 7.0 with RNase inhibitor, 100 ng RNA, 1 h.; recombinant protein; protein details: N-terminal GST-6xHis; label: internal Cy5 or DY647
COL5A2 (Homo sapiens) = COL5A2 (Homo sapiens) (UniProt P05997); conditions: 5' phosphate; amino-C6 U at position 18; Domain array: 20 mM Tris-HCl pH 7.4, 200 mM KCl, 0.2 mM EDTA, 0.05% NP40, 2 ug/ul heparin, overnight 4 C. ORF array: PBS pH 7.0 with RNase inhibitor, 100 ng RNA, 1 h.; recombinant protein; protein details: N-terminal GST-6xHis; label: internal Cy5 or DY647

## CAGUGCAAUGAUGAAAGGGCAU [miR-130b (internal labeling)]
FOLH1 (Homo sapiens)
  binding result: binds
DTNA (Homo sapiens)
  binding result: binds
DAK (Homo sapiens)
  binding result: binds

## UAGCUUAUCAGACUGAUGUUGA [miR-21 (internal labeling)]
SRP9 (Homo sapiens)
  binding result: binds

## UGAGGUAGUAGGUUGUGUGGUU [let-7b (internal labeling)]
THG1L (Homo sapiens)
  binding result: binds
UBE2H (Homo sapiens)
  binding result: binds
COL5A2 (Homo sapiens)
  binding result: binds

For at least one entry, the source does not settle the construct or the ends of the probe. For some of these results: Protein sequences can lack the tags named with them.
